Laboratory results as given in PMC6014458.
No constants are given. Whether binding was seen depends on the method and setting. In cells and extracts the contact can be indirect. Some results given as binding are weak or reduced against the parent protein; the word gives no strength. Sequences can lack the tags named with a protein.

The chains behind the UniProt entries cited, without tags or fusion partners.
UniProt Q9Y2J0: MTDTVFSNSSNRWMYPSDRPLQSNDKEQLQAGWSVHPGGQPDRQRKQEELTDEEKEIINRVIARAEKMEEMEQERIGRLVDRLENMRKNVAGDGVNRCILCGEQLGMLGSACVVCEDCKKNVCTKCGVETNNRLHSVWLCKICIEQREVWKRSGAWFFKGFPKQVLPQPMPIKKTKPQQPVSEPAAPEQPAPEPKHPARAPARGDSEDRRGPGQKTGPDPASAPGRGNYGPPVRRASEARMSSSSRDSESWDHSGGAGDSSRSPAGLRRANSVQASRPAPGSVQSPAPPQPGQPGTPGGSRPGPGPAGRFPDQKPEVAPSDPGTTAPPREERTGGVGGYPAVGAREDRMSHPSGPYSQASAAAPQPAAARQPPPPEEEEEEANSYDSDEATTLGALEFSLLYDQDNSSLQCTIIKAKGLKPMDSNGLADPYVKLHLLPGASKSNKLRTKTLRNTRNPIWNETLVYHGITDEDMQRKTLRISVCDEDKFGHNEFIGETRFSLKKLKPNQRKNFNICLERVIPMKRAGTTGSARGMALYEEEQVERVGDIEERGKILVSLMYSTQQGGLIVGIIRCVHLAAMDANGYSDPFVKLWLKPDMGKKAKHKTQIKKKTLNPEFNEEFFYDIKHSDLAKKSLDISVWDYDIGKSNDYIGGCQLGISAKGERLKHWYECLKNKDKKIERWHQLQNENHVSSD

Target: T1, GST-14-3-3 eta fusion protein (UniProt Q04917)
T1 sequence: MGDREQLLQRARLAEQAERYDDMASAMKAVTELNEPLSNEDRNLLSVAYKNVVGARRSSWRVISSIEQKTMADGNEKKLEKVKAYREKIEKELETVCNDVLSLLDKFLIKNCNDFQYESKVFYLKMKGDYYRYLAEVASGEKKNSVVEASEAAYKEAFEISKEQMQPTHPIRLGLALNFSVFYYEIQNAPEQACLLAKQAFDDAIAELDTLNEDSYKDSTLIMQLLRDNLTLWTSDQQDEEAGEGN
Assay: pull-down; GST or GST-14-3-3 eta fusion protein purified on Glutathione 4B beads, incubated ~1 hr with solubilized lysates of HEK cells transiently transfected with rabphilin 3a constructs; after washing, bound rabphilin 3a eluted and detected by immunoblotting with anti-rabphilin 3a antibody; only the target purified

Substance: rabphilin 3a WT (from UniProt Q9Y2J0 1-694)
- binding: binds
